# Test results: PubChem BioAssay (NCATS)
# Inconclusive means that the source gave no clear call. Such entries were picked first, then a sample of the others. For some assays here: Where the call is inconclusive, the potency comes from a doubtful curve fit. The source made the active and inactive calls. Calls follow the shape of the dose curve; as a rule, active = well fitted curve in the direction sought with a large enough effect; inconclusive = small, poorly fitted or top-dose-only effect, or another doubt; inactive = no such curve, though single readings can be large; an effect the other way counts as inactive or inconclusive.
# Columns and labels:
# [1] = Quantitative High-Throughput drug screen in 47 multiple myeloma cell lines against the NCATS MIPE library collection: JIM1_ECACC cell viability assay (AID 1918964; also: potency is read from the fitted curve at half-maximal effect); conditions: JIM1 myeloma viability, CellTiter-Glo ATP luminescence, 48 h; viability (% of DMSO): at 45.8 µM (top of the series)
# Procedure, shortened: (§1)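 qHTS of the MIPE 4.0 collection: 500 myeloma cells/well, 48 h drug exposure at 37C in 5% CO2, then CellTiter-Glo for 5 min at room temperature before luminescence reading.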
# [2] = Quantitative High-Throughput drug screen in 47 multiple myeloma cell lines against the NCATS MIPE library collection: INA6_PLB cell viability assay (AID 1918965; also: nearly all actives have a fitted effect of over 55% in size; also: potency is read from the fitted curve at half-maximal effect); conditions: INA6 myeloma viability, CellTiter-Glo ATP luminescence, 48 h; viability (% of control): at 45.8 µM (top of the series)
# Procedure, shortened: (§2)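 Inhibition of cell viability is measured here. Each line was plated at 500 cells per well, treated with MIPE 4.0 drugs, kept 48 hours at 37C, then assayed for ATP content by CellTiter-Glo luminescence.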
# [3] = Quantitative High-Throughput drug screen in 47 multiple myeloma cell lines against the NCATS MIPE library collection: JJN3_DSMZ cell viability assay (AID 1918966; also: potency is read from the fitted curve at half-maximal effect; nearly all actives have a fitted effect of over 50% in size); conditions: JJN3 myeloma cells viability, CellTiter-Glo ATP, 48 h; series mostly up to 45.8 µM
# Procedure, shortened: as §1
# [4] = Quantitative High-Throughput drug screen in 47 multiple myeloma cell lines against the NCATS MIPE library collection: H1112_PLB cell viability assay (AID 1918967; also: nearly all actives have a fitted effect of over 30% in size; also: potency is read from the fitted curve at half-maximal effect); conditions: H1112 myeloma cells viability, ATP luminescence, 48 h; viability: at 45.8 µM (top of the series)
# Procedure, shortened: as §1
# [5] = Quantitative High-Throughput drug screen in 47 multiple myeloma cell lines against the NCATS MIPE library collection: KMS27_JCRB cell viability assay (AID 1918970); conditions: KMS27 myeloma cells, CellTiter-Glo ATP viability, 48 h; viability (% of DMSO): at 45.8 µM (top of the series); also: nearly all actives have a fitted effect of over 30% in size; also: potency is read from the fitted curve at half-maximal effect
# Procedure, shortened: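 Viability inhibition screen, 48 h compound exposure, luminescent ATP read-out.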
# [6] = Quantitative High-Throughput drug screen in 47 multiple myeloma cell lines against the NCATS MIPE library collection: KMS12BM_JCRB cell viability assay (AID 1918971); conditions: KMS12BM myeloma viability, CellTiter-Glo ATP, 48 h; series mostly up to 45.8 µM; also: nearly all actives have a fitted effect of over 35% in size; also: potency is read from the fitted curve at half-maximal effect
# Procedure, shortened: (§3)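 Luminescent ATP measurement with CellTiter-Glo gives viability, scaled between DMSO-only wells (100%) and media-only wells (0%). Cells, 500 per well, faced library compounds for 48 hours at 37C.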
# [7] = Quantitative High-Throughput drug screen in 47 multiple myeloma cell lines against the NCATS MIPE library collection: KMS12PE_JCRB cell viability assay (AID 1918972); conditions: KMS12PE myeloma viability, CellTiter-Glo ATP, 48 h; viability: at 45.8 µM (top of the series); also: potency is read from the fitted curve at half-maximal effect; nearly all actives have a fitted effect of over 30% in size
# Procedure, shortened: as §2
# [8] = Quantitative High-Throughput drug screen in 47 multiple myeloma cell lines against the NCATS MIPE library collection: KMS20_JCRB cell viability assay (AID 1918973); conditions: CellTiter-Glo ATP, 48 h; viability (% of DMSO): at 45.8 µM (top of the series); also: nearly all actives have a fitted effect of over 45% in size; also: potency is read from the fitted curve at half-maximal effect
# Procedure, shortened: as §1
# [9] = Quantitative High-Throughput drug screen in 47 multiple myeloma cell lines against the NCATS MIPE library collection: KMS21BM_JCRB cell viability assay (AID 1918974); conditions: ATP luminescence, 48 h; viability: at 45.8 µM (top of the series) unless noted; also: potency is read from the fitted curve at half-maximal effect
# Procedure, shortened: as §1
# [10] = Quantitative High-Throughput drug screen in 47 multiple myeloma cell lines against the NCATS MIPE library collection: MOLP8_DSMZ cell viability assay (AID 1918977); conditions: MOLP8 myeloma viability, CellTiter-Glo ATP luminescence, 48 h; viability (% of control): at 45.8 µM (top of the series); also: nearly all actives have a fitted effect of over 45% in size; also: potency is read from the fitted curve at half-maximal effect
# Procedure, shortened: (§4)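 ATP-based luminescence (CellTiter-Glo, 5 min RT incubation) quantified surviving cells following two days' treatment with MIPE 4.0 agents at 37 °C, 5% CO2.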
# [11] = Quantitative High-Throughput drug screen in 47 multiple myeloma cell lines against the NCATS MIPE library collection: MM1S_ATCC cell viability assay (AID 1918980); conditions: MM1S myeloma viability, CellTiter-Glo ATP luminescence, 48 h; series mostly up to 45.8 µM; also: nearly all actives have a fitted effect of over 45% in size; also: potency is read from the fitted curve at half-maximal effect
# Procedure, shortened: as §4
# [12] = Quantitative High-Throughput drug screen in 47 multiple myeloma cell lines against the NCATS MIPE library collection: KMS28PE_JCRB cell viability assay (AID 1918983); conditions: KMS28PE multiple myeloma viability, CellTiter-Glo ATP, 48 h; series mostly up to 45.8 µM; also: nearly all actives have a fitted effect of over 35% in size; also: potency is read from the fitted curve at half-maximal effect
# Procedure, shortened: as §4
# [13] = Quantitative High-Throughput drug screen in 47 multiple myeloma cell lines against the NCATS MIPE library collection: KMS26_JCRB cell viability assay (AID 1918975); conditions: KMS26 myeloma cells viability, CellTiter-Glo ATP, 48 h; viability (% of DMSO): at 45.8 µM (top of the series); also: nearly all actives have a fitted effect of over 45% in size; also: potency is read from the fitted curve at half-maximal effect
# Procedure, shortened: as §3
# [14] = Quantitative High-Throughput drug screen in 47 multiple myeloma cell lines against the NCATS MIPE library collection: MMM1_PLB cell viability assay (AID 1918976); conditions: MMM1 myeloma cells viability, CellTiter-Glo, 48 h; series mostly up to 45.8 µM; also: potency is read from the fitted curve at half-maximal effect; nearly all actives have a fitted effect of over 35% in size
# Procedure, shortened: as §4
# [15] = Quantitative High-Throughput drug screen in 47 multiple myeloma cell lines against the NCATS MIPE library collection: NCIH929_DSMZ cell viability assay (AID 1918978); conditions: NCI-H929 myeloma viability, CellTiter-Glo ATP, 48 h; series mostly up to 45.8 µM; also: nearly all actives have a fitted effect of over 35% in size; also: potency is read from the fitted curve at half-maximal effect
# Procedure, shortened: as §4
# [16] = Quantitative High-Throughput drug screen in 47 multiple myeloma cell lines against the NCATS MIPE library collection: MM1R_ATCC cell viability assay (AID 1918981); conditions: MM1R multiple myeloma cells, CellTiter-Glo viability, 48 h; series mostly up to 45.8 µM
# Procedure, shortened: as §4
# [17] = Quantitative High-Throughput drug screen in 47 multiple myeloma cell lines against the NCATS MIPE library collection: LP1_DSMZ cell viability assay (AID 1918982); conditions: LP1 myeloma viability, CellTiter-Glo ATP luminescence, 48 h; series mostly up to 45.8 µM; also: nearly all actives have a fitted effect of over 35% in size; also: potency is read from the fitted curve at half-maximal effect
# Procedure, shortened: as §4
# [18] = Quantitative High-Throughput drug screen in 47 multiple myeloma cell lines against the NCATS MIPE library collection: Karpas25_ECACC cell viability assay (AID 1918968; also: nearly all actives have a fitted effect of over 35% in size); conditions: Karpas25 myeloma viability, CellTiter-Glo ATP, 48 h; viability (% of control): at 45.8 µM (top of the series)
# Procedure, shortened: as §1
# [19] = Quantitative High-Throughput drug screen in 47 multiple myeloma cell lines against the NCATS MIPE library collection: OCIMY1_PLB cell viability assay (AID 1918979); conditions: OCI-MY1 myeloma viability, CellTiter-Glo ATP, 48 h; series mostly up to 45.8 µM; also: nearly all actives have a fitted effect of over 35% in size
# Procedure, shortened: as §4
Compound,Potency [1],Potency [2],Potency [3],Potency [4],Potency [5],Potency [6],Potency [7],Potency [8],Potency [9],Potency [10],Potency [11],Potency [12],Potency [13],Potency [14],Potency [15],Potency [16],Potency [17],Potency [18],Potency [19]
C[C@]12CC[C@@H]3c4ccc(O)cc4CC[C@H]3[C@H]1C[C@@H](O)[C@H]2O,"inconclusive: 14.8 µM [cytotoxic, partial curve, poor fit]","inconclusive: 23.5 µM [cytotoxic, single point]","inconclusive: 11.8 µM [cytotoxic, partial curve, poor fit]",inactive,"inconclusive: 0.209 µM [cytotoxic, partial curve, poor fit]","inconclusive: 1.66 µM [cytotoxic, full curve, poor fit]","inconclusive: 37.2 µM [cytotoxic, single point]",inactive,"inconclusive: 5.9 µM [cytotoxic, partial curve, poor fit]","inconclusive: 0.469 µM [cytotoxic, full curve, poor fit]","inconclusive: 26.4 µM [cytotoxic, single point]","inconclusive: 0.0743 µM [cytotoxic, full curve, poor fit]",,,,,,,
COc1ccc2cc(-c3nc(-c4ccc(S(C)=O)cc4)[nH]c3-c3ccncc3)ccc2c1 (stereo not drawn),"inconclusive: 33.2 µM [cytotoxic, single point]",active: 14.8 µM,"inconclusive: 14.8 µM [cytotoxic, partial curve, poor fit]","inconclusive: 18.7 µM [cytotoxic, partial curve, poor fit]","inconclusive: 37.2 µM [cytotoxic, single point]","inconclusive: 33.2 µM [cytotoxic, single point]","inconclusive: 33.2 µM [cytotoxic, single point]",,,inactive,"inconclusive: 18.7 µM [cytotoxic, single point]",,"inconclusive: 33.2 µM [cytotoxic, single point]","inconclusive: 0.0074 µM [rising, full curve]","inconclusive: 26.4 µM [cytotoxic, single point]","inconclusive: 2.96 µM [cytotoxic, full curve, poor fit]","inconclusive: 20.9 µM [cytotoxic, partial curve]",,
O=C(OCC#CCSc1nnc(-c2cccc3ccccc23)o1)c1cc2ccccc2s1,inactive,inactive,"inconclusive: 11.8 µM [cytotoxic, partial curve, poor fit]",inactive,,active: 16.6 µM,,,"inconclusive: 33.2 µM [rising, partial curve]",,inactive,,,"inconclusive: 18.7 µM [cytotoxic, partial curve, poor fit]",,"inconclusive: 37.2 µM [cytotoxic, single point]",inactive,inactive,
NC(=O)c1cccc(-c2cc(Nc3ccc(OC(F)(F)F)cc3)ncn2)c1,"inconclusive: 20.9 µM [cytotoxic, partial curve, poor fit]",active: 14.8 µM,"inconclusive: 29.6 µM [cytotoxic, single point]","inconclusive: 13.2 µM [cytotoxic, partial curve]",,,,"inconclusive: 11.8 µM [cytotoxic, partial curve, poor fit]","inconclusive: 23.5 µM [cytotoxic, partial curve, poor fit]",inconclusive: 0.001 µM,inactive,"inconclusive: 33.2 µM [cytotoxic, single point]","inconclusive: 37.2 µM [cytotoxic, single point]",,,"inconclusive: 33.2 µM [cytotoxic, single point]","inconclusive: 16.6 µM [cytotoxic, partial curve]",,inactive
COc1ccc(-n2c(C)c([N+](=O)[O-])c3ccc(O)cc32)cc1,"inconclusive: 0.296 µM [cytotoxic, full curve, poor fit]","inconclusive: 16.6 µM [cytotoxic, partial curve]","inconclusive: 5.26 µM [cytotoxic, partial curve, poor fit]",inactive,"inconclusive: 0.0332 µM [cytotoxic, full curve, poor fit]","inconclusive: 16.6 µM [cytotoxic, partial curve, poor fit]","inconclusive: 14.8 µM [cytotoxic, partial curve, poor fit]","inconclusive: 0.0019 µM [cytotoxic, full curve, poor fit]","inconclusive: 0.833 µM [rising, full curve, poor fit]",inactive,,,"inconclusive: 37.2 µM [cytotoxic, single point]","inconclusive: 0.0187 µM [cytotoxic, full curve, poor fit]","inconclusive: 23.5 µM [cytotoxic, partial curve]",,"inconclusive: 10.5 µM [cytotoxic, full curve, poor fit]",,inactive
O=C(O)c1cn(-c2ccc(F)cc2)c2cc(N3CCNCC3)c(F)cc2c1=O,inactive,inactive,"inconclusive: 2.35 µM [cytotoxic, full curve, poor fit]",inactive,inactive,,,"inconclusive: 0.0105 µM [rising, full curve, poor fit]","inconclusive: 0.0372 µM [rising, full curve, poor fit]","inconclusive: 0.003 µM [rising, full curve, poor fit]",,inactive,inactive,active: 11.8 µM,,,inactive,,
Cn1cc(C=C2C(=O)Nc3cccnc32)c2ccccc21,"inconclusive: 11.8 µM [cytotoxic, partial curve, poor fit]","inconclusive: 16.6 µM [cytotoxic, partial curve, poor fit]","inconclusive: 2.09 µM [rising, partial curve, poor fit]",inactive,,inactive,"inconclusive: 23.5 µM [cytotoxic, single point]","inconclusive: 5.9 µM [cytotoxic, full curve, poor fit]","inconclusive: 10.5 µM [cytotoxic, full curve, poor fit]",inactive,"inconclusive: 0.0074 µM [rising, full curve, poor fit]",inactive,,"inconclusive: 0.0037 µM [rising, full curve, poor fit]","inconclusive: 18.7 µM [cytotoxic, partial curve]","inconclusive: 0.0105 µM [rising, full curve, poor fit]",inactive,inactive,inactive
Cc1nc2n(c(=O)c1CCN1CCC(c3noc4cc(F)ccc34)CC1)CCCC2,"inconclusive: 0.0296 µM [rising, full curve, poor fit]",inactive,"inconclusive: 0.0833 µM [rising, full curve, poor fit]",,,inactive,,inactive,"inconclusive: 13.2 µM [cytotoxic, partial curve, poor fit]",inactive,inactive,,,"inconclusive: 23.5 µM [cytotoxic, single point]",,,inactive,inactive,inactive
COc1cc(C(C)C)c(Oc2cnc(NC(CO)CO)nc2N)cc1I,"inconclusive: 10.5 µM [cytotoxic, full curve, poor fit]",inactive,"inconclusive: 11.8 µM [cytotoxic, partial curve, poor fit]",,"inconclusive: 9.35 µM [cytotoxic, partial curve, poor fit]",inactive,"inconclusive: 18.7 µM [cytotoxic, partial curve, poor fit]","inconclusive: 8.33 µM [cytotoxic, partial curve, poor fit]",active: 0.662 µM,inactive,,inactive,,"inconclusive: 9.35 µM [cytotoxic, full curve, poor fit]",,,inactive,,
O=C(C=Cc1ccc(/C=C/C(=O)Nc2ccc(C3=NCCN3)cc2)cc1)Nc1ccc(C2=NCCN2)cc1,"inconclusive: 6.62 µM [cytotoxic, single point]","inconclusive: 0.0047 µM [cytotoxic, full curve, poor fit]","inconclusive: 0.0023 µM [rising, full curve, poor fit]",,inactive,inconclusive: 0.001 µM,,inactive,"inconclusive: 8.33 µM [rising, full curve]",inactive,"inconclusive: 14.8 µM [cytotoxic, partial curve, poor fit]","inconclusive: 6.62 µM [rising, partial curve, poor fit]","inconclusive: 0.526 µM [rising, full curve]",,,inconclusive: 0.001 µM,,,inactive
COc1nc(-c2ccc3c(c2)OCO3)n(-c2ccc(NC(=O)CSc3ccccc3)cc2)n1,inactive,inactive,"inconclusive: 1.66 µM [cytotoxic, partial curve, poor fit]",,,"inconclusive: 4.18 µM [cytotoxic, full curve, poor fit]",,"inconclusive: 0.0132 µM [cytotoxic, full curve, poor fit]","inconclusive: 33.2 µM [rising, partial curve, poor fit]","inconclusive: 37.2 µM [cytotoxic, single point]","inconclusive: 5.26 µM [cytotoxic, full curve, poor fit]",,active: 11.8 µM,,inactive,,,inactive,inactive
